# Data reported in article PMC4896453.
# The chains behind the UniProt entries cited, without tags or fusion partners.
# UniProt P35372: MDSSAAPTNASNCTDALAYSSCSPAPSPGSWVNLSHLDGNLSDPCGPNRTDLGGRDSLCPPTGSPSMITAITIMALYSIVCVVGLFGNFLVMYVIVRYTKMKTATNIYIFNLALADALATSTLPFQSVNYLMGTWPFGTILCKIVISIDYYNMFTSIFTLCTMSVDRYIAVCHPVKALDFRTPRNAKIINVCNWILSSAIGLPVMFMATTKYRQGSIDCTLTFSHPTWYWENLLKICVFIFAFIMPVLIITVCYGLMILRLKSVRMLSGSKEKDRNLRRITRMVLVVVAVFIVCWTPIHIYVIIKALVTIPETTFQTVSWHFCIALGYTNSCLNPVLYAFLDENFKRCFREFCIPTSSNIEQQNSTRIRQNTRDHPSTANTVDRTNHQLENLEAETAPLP
# UniProt P41146: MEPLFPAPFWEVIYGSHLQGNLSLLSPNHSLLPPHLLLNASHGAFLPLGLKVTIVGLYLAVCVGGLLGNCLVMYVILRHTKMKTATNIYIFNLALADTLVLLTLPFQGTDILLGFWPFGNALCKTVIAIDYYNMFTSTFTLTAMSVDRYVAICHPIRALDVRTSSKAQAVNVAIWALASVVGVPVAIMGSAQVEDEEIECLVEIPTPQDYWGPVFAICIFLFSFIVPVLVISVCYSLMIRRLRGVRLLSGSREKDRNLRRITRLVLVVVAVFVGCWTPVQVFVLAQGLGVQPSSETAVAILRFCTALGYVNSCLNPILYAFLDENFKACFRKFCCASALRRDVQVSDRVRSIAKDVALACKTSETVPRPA
# UniProt P32121: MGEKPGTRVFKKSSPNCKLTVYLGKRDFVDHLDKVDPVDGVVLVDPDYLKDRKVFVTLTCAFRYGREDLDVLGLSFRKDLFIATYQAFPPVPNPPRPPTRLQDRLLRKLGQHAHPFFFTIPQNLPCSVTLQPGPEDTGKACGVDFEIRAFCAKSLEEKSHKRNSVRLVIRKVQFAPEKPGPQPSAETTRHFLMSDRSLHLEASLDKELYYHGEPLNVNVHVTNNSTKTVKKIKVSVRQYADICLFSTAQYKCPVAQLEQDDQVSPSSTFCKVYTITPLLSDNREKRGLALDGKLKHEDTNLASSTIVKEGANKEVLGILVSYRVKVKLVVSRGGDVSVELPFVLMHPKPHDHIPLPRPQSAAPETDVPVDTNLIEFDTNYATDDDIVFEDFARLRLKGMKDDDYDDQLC
# UniProt P62873: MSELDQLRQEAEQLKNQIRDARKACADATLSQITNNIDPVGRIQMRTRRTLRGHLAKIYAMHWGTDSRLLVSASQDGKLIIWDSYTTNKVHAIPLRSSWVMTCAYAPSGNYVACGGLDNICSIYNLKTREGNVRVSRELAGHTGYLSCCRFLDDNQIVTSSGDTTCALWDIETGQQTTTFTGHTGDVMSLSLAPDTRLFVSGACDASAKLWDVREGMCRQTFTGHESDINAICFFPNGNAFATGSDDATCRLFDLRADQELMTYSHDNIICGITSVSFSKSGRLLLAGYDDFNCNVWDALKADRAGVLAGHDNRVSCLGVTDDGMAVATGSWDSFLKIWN
# Results are given in words; binding and its absence hold for the method and conditions named. Binding seen in cells or lysates may run through a third protein. Some binding calls cover weakened binding; strength is not graded here.
# Legend:
# Mu-RLuc (human) = Mu-RLuc (human) (UniProt P35372); assay: FRET or BRET
# NOP-RLuc (human) [1] = molecular target: NOP-RLuc (human) (UniProt P41146); assay: FRET or BRET; whole HEK-293 cells (NOP-RLuc) or SH-SY5Y cells (Mu-RLuc) co-expressing β-arrestin 2-RGFP, plated 24 h before, in DPBS with 0.5 mM MgCl2 and 0.9 mM CaCl2; coelenterazine 5 μM; agonist peptides added for 5 min; room temperature
# NOP-RLuc (human) [2] = molecular target: NOP-RLuc (human) (UniProt P41146); assay: FRET or BRET; membranes (3 μg protein) of HEK-293 cells (NOP-RLuc) or SH-SY5Y cells (Mu-RLuc) co-expressing Gβ1-RGFP, in Dulbecco's PBS; coelenterazine 5 μM; agonist peptides added for 5 min; room temperature
binding (Mu-RLuc (human)),binding (NOP-RLuc (human) [1]),binding (NOP-RLuc (human) [2]),Substance
binds,binds,,β-arrestin 2-RGFP (from UniProt P32121 1-409)
,,binds,Gβ1-RGFP (from UniProt P62873 1-340)
